The source of these data is publication PMC6851102.

Amino acid sequences for entries named in this document (tags omitted).
UniProt O15397: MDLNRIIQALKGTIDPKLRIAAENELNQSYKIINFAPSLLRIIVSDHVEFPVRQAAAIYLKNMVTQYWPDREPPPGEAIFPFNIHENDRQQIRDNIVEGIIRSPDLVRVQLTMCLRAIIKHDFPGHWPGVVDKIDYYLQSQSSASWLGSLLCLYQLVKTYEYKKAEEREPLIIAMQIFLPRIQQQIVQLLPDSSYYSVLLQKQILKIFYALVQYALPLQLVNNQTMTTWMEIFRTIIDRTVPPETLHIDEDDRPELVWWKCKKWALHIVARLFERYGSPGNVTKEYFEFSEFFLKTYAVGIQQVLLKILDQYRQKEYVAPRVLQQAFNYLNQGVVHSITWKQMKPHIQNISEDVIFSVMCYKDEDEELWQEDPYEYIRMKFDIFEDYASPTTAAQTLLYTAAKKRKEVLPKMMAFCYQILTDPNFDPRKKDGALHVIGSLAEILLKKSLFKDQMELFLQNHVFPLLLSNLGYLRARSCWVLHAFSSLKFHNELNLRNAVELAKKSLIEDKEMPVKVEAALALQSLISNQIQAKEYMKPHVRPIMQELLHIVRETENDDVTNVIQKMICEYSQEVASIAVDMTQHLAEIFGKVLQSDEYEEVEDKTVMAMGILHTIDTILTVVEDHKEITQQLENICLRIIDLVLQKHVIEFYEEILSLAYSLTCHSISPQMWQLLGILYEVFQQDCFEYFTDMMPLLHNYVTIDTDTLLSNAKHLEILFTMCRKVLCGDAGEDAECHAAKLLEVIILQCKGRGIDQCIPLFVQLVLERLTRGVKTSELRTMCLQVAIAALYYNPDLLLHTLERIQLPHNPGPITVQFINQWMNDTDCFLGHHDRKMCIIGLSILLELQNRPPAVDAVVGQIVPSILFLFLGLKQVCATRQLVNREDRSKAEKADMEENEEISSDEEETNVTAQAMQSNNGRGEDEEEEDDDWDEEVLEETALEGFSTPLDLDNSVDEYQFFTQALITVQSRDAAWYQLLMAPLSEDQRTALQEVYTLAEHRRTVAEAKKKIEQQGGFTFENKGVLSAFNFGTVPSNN
UniProt Q6UXN9: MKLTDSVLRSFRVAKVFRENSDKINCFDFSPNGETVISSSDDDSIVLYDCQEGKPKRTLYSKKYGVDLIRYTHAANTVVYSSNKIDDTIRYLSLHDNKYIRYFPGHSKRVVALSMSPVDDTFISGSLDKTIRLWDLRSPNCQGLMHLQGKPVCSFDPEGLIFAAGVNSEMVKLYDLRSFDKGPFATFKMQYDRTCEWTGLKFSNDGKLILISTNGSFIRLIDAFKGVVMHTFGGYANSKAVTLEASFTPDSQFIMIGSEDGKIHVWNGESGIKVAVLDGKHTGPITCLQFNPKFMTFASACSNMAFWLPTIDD
UniProt Q8TDI0: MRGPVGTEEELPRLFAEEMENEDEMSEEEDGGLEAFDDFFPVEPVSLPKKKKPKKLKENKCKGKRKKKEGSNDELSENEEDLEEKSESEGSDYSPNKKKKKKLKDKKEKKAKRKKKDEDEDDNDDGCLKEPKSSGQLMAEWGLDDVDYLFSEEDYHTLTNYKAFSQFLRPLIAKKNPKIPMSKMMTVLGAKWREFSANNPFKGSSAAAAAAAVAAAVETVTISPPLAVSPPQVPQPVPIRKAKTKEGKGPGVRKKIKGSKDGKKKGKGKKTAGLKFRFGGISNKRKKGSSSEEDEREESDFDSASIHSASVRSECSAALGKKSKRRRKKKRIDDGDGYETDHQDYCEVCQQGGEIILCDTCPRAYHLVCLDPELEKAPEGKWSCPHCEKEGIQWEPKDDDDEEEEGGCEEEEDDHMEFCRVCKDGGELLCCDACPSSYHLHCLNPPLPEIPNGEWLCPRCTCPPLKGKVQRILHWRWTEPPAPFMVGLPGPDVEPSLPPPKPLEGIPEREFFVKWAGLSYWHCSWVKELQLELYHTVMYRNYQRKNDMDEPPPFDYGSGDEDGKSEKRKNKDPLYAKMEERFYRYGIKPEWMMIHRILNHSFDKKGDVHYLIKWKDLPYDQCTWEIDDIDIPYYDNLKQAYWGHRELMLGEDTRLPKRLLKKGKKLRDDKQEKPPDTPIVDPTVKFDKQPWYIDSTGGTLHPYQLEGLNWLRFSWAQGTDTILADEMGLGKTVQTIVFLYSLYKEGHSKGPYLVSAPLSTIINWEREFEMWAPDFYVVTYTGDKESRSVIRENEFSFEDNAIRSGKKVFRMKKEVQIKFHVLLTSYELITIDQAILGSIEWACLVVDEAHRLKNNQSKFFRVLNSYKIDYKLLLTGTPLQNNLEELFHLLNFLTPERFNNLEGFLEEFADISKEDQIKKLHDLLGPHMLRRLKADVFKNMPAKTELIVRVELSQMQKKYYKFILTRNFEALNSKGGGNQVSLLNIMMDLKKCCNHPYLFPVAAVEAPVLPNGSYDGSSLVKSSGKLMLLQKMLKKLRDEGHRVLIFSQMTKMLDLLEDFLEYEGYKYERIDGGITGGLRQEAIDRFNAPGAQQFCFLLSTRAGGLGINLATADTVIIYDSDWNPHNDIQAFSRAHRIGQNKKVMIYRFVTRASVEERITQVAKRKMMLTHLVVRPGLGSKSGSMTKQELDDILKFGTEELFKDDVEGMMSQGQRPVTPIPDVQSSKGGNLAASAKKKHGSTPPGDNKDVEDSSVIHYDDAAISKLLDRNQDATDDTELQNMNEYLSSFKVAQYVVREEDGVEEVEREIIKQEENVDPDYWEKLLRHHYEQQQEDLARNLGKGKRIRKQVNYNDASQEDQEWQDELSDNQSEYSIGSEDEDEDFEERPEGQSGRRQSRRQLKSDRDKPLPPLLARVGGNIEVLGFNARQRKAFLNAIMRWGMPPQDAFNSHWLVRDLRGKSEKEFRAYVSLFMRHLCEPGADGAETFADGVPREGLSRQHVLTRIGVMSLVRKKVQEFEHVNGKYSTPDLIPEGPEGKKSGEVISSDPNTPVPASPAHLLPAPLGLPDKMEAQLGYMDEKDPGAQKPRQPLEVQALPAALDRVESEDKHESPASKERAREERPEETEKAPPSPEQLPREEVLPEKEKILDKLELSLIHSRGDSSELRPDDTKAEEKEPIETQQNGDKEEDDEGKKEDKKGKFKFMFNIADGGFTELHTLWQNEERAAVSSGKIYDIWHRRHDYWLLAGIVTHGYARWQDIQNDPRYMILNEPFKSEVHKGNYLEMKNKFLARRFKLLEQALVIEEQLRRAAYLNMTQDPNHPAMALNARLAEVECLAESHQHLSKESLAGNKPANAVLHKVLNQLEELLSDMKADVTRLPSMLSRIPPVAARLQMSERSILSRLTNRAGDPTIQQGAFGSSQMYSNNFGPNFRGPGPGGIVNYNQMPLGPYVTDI
UniProt Q09028: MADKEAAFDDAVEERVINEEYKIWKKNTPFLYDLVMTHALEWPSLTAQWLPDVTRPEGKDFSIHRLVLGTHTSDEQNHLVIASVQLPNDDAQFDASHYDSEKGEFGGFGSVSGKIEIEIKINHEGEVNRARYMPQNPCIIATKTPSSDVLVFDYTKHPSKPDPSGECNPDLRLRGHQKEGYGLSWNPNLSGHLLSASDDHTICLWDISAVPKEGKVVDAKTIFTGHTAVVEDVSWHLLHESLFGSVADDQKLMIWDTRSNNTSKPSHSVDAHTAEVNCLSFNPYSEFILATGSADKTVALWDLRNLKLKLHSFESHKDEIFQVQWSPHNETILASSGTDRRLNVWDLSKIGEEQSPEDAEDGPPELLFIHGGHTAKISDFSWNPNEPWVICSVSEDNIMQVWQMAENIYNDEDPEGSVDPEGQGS
UniProt Q9UBB5: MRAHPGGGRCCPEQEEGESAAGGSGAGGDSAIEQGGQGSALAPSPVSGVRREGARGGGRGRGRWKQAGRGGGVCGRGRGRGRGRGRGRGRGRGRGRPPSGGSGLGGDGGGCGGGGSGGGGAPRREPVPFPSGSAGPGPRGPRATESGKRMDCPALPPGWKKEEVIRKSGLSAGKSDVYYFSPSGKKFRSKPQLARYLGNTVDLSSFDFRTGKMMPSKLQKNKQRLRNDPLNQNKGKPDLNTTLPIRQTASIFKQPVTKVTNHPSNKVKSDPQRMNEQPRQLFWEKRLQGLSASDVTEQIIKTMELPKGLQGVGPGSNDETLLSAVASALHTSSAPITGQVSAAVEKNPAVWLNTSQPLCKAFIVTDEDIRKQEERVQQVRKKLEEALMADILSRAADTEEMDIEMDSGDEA
UniProt Q12873: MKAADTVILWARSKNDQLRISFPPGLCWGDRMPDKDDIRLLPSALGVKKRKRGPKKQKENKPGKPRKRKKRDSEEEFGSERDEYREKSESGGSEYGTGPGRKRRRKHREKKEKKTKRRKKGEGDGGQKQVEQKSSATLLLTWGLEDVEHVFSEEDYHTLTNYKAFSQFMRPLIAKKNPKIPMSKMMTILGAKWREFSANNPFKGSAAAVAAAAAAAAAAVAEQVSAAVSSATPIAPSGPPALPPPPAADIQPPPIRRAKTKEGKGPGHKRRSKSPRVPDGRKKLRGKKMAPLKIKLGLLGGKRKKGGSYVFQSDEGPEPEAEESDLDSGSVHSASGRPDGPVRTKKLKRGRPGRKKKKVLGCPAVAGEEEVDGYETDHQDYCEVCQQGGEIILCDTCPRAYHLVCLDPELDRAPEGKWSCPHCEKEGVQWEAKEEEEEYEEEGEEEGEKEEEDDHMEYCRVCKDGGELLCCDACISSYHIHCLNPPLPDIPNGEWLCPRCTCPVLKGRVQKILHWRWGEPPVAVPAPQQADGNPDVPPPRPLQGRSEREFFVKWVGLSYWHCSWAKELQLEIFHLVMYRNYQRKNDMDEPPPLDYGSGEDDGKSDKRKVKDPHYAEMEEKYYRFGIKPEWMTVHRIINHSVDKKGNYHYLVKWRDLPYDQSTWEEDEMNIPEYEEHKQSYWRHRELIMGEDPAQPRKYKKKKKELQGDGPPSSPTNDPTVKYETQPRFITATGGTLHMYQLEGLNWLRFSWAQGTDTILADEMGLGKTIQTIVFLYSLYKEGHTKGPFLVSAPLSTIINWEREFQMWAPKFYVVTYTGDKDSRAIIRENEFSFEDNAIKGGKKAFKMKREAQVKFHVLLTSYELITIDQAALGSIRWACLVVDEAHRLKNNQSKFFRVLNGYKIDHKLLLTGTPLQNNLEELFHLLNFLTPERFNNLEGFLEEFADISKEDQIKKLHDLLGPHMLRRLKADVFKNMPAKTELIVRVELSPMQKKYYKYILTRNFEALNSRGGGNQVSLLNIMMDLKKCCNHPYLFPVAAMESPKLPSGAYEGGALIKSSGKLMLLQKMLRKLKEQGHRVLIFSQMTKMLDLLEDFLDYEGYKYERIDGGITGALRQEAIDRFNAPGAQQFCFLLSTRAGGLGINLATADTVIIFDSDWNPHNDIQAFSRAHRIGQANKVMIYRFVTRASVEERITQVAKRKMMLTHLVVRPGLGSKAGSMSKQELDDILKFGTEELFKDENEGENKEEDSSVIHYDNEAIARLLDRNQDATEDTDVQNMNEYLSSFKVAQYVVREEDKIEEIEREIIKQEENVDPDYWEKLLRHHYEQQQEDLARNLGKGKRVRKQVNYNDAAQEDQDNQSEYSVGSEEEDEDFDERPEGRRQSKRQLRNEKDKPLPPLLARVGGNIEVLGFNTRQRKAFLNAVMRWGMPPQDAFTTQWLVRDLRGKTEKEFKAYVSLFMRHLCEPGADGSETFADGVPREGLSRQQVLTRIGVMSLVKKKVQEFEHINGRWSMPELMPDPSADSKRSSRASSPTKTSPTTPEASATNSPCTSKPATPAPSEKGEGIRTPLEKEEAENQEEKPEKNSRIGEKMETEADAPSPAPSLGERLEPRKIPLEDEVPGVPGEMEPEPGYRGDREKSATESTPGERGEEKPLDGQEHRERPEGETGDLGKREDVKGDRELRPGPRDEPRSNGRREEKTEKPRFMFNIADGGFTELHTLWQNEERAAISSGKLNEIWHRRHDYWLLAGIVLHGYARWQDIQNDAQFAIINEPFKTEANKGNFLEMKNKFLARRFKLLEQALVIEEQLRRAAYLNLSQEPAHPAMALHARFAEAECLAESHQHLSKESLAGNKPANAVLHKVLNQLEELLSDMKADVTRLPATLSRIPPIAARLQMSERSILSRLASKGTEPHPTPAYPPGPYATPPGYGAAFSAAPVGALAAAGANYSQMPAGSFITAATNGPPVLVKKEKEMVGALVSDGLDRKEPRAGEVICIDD

No constants are given. Whether binding was seen depends on the method and setting. In cells and extracts the contact can be indirect. These calls come from enrichment with a bait or labelling near it, and not all partners need be listed. Tags and fused reporters may be left off the sequences shown.

Experiment in all cases: proximity labelling; BioID: FlagBirA*-tagged human ZEB1 (N- or C-terminal tag) stably in HEK293 Flp-In; tetracycline, biotin and MG-132; biotinylated proteins isolated with streptavidin-sepharose, trypsin, nLC-ESI-MS/MS; SAINT against cells with the FlagBirA* tag alone
Assay [1] has as its target T1, FlagBirA*-ZEB1 (human ZEB1 with an N-terminal FlagBirA* tag) (human) (UniProt P37275).
T1 sequence: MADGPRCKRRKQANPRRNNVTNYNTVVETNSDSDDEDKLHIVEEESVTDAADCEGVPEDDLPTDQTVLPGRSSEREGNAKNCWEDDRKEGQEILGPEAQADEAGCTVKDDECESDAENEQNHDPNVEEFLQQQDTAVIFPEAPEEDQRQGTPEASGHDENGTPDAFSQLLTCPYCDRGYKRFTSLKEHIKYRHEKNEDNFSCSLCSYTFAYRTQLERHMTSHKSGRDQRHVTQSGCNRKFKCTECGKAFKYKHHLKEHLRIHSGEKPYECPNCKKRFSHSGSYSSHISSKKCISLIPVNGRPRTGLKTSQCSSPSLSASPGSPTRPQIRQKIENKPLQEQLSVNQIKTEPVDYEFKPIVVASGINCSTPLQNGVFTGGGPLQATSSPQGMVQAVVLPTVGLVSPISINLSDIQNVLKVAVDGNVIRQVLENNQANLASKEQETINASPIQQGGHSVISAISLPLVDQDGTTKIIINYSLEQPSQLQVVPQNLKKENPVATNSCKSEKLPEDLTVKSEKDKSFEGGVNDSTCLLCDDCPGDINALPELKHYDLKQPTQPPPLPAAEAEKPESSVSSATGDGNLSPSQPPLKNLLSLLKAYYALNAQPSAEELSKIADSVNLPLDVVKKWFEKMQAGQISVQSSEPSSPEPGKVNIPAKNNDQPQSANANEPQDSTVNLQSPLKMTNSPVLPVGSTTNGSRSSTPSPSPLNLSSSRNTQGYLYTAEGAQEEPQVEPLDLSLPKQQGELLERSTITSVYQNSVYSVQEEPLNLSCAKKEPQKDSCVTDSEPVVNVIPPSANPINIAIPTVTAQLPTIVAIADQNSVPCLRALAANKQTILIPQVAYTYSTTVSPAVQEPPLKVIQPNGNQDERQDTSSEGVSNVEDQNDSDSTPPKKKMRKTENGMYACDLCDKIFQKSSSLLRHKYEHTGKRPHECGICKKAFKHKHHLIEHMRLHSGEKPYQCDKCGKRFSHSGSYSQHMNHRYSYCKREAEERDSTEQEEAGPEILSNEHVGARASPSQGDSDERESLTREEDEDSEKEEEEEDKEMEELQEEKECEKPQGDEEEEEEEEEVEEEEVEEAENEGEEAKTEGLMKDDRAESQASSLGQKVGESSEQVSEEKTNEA

The target of assay [2] is T2, ZEB1-FlagBirA* (human ZEB1 with a C-terminal FlagBirA* tag) (human) (UniProt P37275).
T2 sequence: T1 sequence

In assay [3] the target is T3, FlagBirA*-ZEB1 (human ZEB1 with an N-terminal FlagBirA* tag) (human), P37275.
T3 chain: T1 sequence
The following applies: remark: other sources report otherwise.

In assay [4] the target is T4, ZEB1-FlagBirA* (human ZEB1 with a C-terminal FlagBirA* tag) (human), P37275.
T4 chain: T1 sequence
The following applies: remark: other sources report otherwise.

Regarding “GATAD2B, human, endogenous (from UniProt Q8WXI9 1-593)”, the binding result in assay [1] and in assay [2] was “binds” throughout. Turning to “IPO8, human, endogenous (from UniProt O15397 1-1037)”, the binding entry in assay [1] and in assay [2] was “binds” in each case. With “CHD8, human, endogenous (from UniProt Q9HCK8 1-2581)”, in assay [1], the binding entry is listed as “binds”. “WDR82, human, endogenous (from UniProt Q6UXN9 1-313)”: the binding entry in assay [1] is listed as “binds”. Consider “CHD5, human, endogenous (from UniProt Q8TDI0 1-1954)”, for which the binding result in assay [1] is given as “binds”.

“RBBP4, human, endogenous (from UniProt Q09028 1-425)”: in assay [1], the binding entry is “binds”. Still for that read-out and setting: the entry for “MBD2, human, endogenous (from UniProt Q9UBB5 1-411)” is “binds”. Still for that read-out and setting: next, “CHD3 (chromodomain helicase DNA-binding protein 3), human, endogenous (from UniProt Q12873 1-2000)”: “binds”.

B1: MTA3, human, endogenous, Q9BTC8 1-594 (protein)
chain: MAANMYRVGDYVYFENSSSNPYLIRRIEELNKTASGNVEAKVVCFYRRRDISNTLIMLADKHAKEIEEESETTVEADLTDKQKHQLKHRELFLSRQYESLPATHIRGKCSVALLNETESVLSYLDKEDTFFYSLVYDPSLKTLLADKGEIRVGPRYQADIPEMLLEGESDEREQSKLEVKVWDPNSPLTDRQIDQFLVVARAVGTFARALDCSSSVRQPSLHMSAAAASRDITLFHAMDTLYRHSYDLSSAISVLVPLGGPVLCRDEMEEWSASEASLFEEALEKYGKDFNDIRQDFLPWKSLTSIIEYYYMWKTTDRYVQQKRLKAAEAESKLKQVYIPTYSKPNPNQISTSNGKPGAVNGAVGTTFQPQNPLLGRACESCYATQSHQWYSWGPPNMQCRLCAICWLYWKKYGGLKMPTQSEEEKLSPSPTTEDPRVRSHVSRQAMQGMPVRNTGSPKSAVKTRQAFFLHTTYFTKFARQVCKNTLRLRQAARRPFVAINYAAIRAEYADRHAELSGSPLKSKSTRKPLACIIGYLEIHPAKKPNVIRSTPSLQTPTTKRMLTTPNHTSLSILGKRNYSHHNGLDELTCCVSD
In the case of B1, the binding result in assay [3] and in assay [4] was “binds” in each case.

B2: ADNP, human, endogenous (protein, UniProt Q9H2P0 1-1102)
chain: MFQLPVNNLGSLRKARKTVKKILSDIGLEYCKEHIEDFKQFEPNDFYLKNTTWEDVGLWDPSLTKNQDYRTKPFCCSACPFSSKFFSAYKSHFRNVHSEDFENRILLNCPYCTFNADKKTLETHIKIFHAPNASAPSSSLSTFKDKNKNDGLKPKQADSVEQAVYYCKKCTYRDPLYEIVRKHIYREHFQHVAAPYIAKAGEKSLNGAVPLGSNAREESSIHCKRCLFMPKSYEALVQHVIEDHERIGYQVTAMIGHTNVVVPRSKPLMLIAPKPQDKKSMGLPPRIGSLASGNVRSLPSQQMVNRLSIPKPNLNSTGVNMMSSVHLQQNNYGVKSVGQGYSVGQSMRLGLGGNAPVSIPQQSQSVKQLLPSGNGRSYGLGSEQRSQAPARYSLQSANASSLSSGQLKSPSLSQSQASRVLGQSSSKPAAAATGPPPGNTSSTQKWKICTICNELFPENVYSVHFEKEHKAEKVPAVANYIMKIHNFTSKCLYCNRYLPTDTLLNHMLIHGLSCPYCRSTFNDVEKMAAHMRMVHIDEEMGPKTDSTLSFDLTLQQGSHTNIHLLVTTYNLRDAPAESVAYHAQNNPPVPPKPQPKVQEKADIPVKSSPQAAVPYKKDVGKTLCPLCFSILKGPISDALAHHLRERHQVIQTVHPVEKKLTYKCIHCLGVYTSNMTASTITLHLVHCRGVGKTQNGQDKTNAPSRLNQSPSLAPVKRTYEQMEFPLLKKRKLDDDSDSPSFFEEKPEEPVVLALDPKGHEDDSYEARKSFLTKYFNKQPYPTRREIEKLAASLWLWKSDIASHFSNKRKKCVRDCEKYKPGVLLGFNMKELNKVKHEMDFDAEWLFENHDEKDSRVNASKTADKKLNLGKEDDSSSDSFENLEEESNESGSPFDPVFEVEPKISNDNPEEHVLKVIPEDASESEEKLDQKEDGSKYETIHLTEEPTKLMHNASDSEVDQDDVVEWKDGASPSESGPGSQQVSDFEDNTCEMKPGTWSDESSQSEDARSSKPAAKKKATMQGDREQLKWKNSSYGKVEGFWSKDQSQWKNASENDERLSNPQIEWQNSTIDSEDGEQFDNMTDGVAEPMHGSLAGVKLSSQQA
B2: the binding result in assay [1] is given as “binds”.
